We go through two substances from PMC9769623.

No constants are given. Whether binding was seen depends on the method and setting. In cells and extracts the contact can be indirect. Binding can be weak; no strength is given. Where a sequence is shown, tags or fusion partners need not be part of it.

Test [1] has as its target T1, Sln1-Myc (C. albicans) (UniProt Q5A872).
T1 sequence: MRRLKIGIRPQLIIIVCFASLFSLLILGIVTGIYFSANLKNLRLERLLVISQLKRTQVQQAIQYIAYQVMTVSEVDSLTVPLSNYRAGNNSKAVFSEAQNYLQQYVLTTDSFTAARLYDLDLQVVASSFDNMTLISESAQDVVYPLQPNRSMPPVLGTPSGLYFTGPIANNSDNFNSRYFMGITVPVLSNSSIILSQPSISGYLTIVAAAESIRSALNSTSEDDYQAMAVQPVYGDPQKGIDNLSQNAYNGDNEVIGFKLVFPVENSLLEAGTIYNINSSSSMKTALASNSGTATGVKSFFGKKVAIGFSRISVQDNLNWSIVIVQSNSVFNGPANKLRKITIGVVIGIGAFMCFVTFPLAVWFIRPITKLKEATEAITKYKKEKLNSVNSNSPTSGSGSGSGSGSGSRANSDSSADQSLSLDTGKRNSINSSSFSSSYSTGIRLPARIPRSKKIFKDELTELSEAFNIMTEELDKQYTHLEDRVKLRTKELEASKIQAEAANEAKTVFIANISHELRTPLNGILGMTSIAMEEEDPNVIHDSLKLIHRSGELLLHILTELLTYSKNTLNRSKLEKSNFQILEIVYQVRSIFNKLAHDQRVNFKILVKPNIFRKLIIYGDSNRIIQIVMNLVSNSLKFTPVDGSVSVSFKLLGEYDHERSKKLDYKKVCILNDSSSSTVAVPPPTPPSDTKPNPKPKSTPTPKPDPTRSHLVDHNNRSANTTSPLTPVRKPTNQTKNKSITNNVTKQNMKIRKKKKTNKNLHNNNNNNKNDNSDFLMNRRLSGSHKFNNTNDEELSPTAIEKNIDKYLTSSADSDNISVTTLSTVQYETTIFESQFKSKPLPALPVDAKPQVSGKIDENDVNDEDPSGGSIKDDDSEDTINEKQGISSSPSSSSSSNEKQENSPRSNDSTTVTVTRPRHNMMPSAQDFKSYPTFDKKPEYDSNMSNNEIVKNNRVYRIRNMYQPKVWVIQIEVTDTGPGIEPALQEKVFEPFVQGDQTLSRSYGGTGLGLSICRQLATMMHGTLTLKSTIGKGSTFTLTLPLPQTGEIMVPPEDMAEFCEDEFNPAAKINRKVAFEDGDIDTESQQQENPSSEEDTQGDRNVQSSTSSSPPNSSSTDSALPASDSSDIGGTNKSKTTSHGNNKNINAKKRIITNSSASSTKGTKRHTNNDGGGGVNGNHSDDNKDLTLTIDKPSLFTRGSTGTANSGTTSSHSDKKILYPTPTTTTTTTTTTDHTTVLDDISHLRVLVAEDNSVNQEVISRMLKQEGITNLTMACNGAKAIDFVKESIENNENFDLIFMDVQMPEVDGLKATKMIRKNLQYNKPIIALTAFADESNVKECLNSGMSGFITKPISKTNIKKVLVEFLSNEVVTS
Kind of test: co-IP; C. albicans cell lysates on HA or Myc antibody beads, 4°C, ≥1 h; five washes in lysis buffer (50 mM Tris-HCl pH 7.4, 150 mM KCl, 1% NP-40); Western blot with αMyc or αHA. Background: A western blot detects proteins with antibodies after separation by electrophoresis.

For test [2], the target named is T2, Mp65-HA (C. albicans) (UniProt Q59XX2).
T2 sequence: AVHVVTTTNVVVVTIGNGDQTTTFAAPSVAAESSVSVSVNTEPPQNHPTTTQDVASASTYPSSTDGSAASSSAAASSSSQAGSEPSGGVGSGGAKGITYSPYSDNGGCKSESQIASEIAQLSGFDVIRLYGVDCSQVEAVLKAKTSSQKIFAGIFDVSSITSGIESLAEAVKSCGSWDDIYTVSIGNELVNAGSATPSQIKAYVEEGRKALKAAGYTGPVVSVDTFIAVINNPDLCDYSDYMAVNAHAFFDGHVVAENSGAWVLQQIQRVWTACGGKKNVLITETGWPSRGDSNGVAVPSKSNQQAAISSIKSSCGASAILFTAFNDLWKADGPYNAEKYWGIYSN
The test is described as above.

HA-Cyr1 (C. albicans) (enzyme): the binding entry in test [1] is “binds”.

Take Myc-Cyr1 (C. albicans) (enzyme): in test [2], the binding result is listed as “binds”.
